Measured values as given in patent US10898561B2, “Peptides and combination of peptides for use in immunotherapy against pancreatic cancer and other cancers” (IMMATICS BIOTECHNOLOGIES GMBH, priority 2015, dated 2021).

The substances below were run on source genes of the peptides in pancreatic cancer vs normal tissues (assay: Expression profiling of source genes by Affymetrix microarrays). Settings: expression score of source gene, tumors compared to a panel of normal tissues.
Design: species or system human; key: very highly overexpressed in tumors compared to a panel of normal tissues (+++); highly overexpressed in tumors compared to a panel of normal tissues (++); overexpressed in tumors compared to a panel of normal tissues (+)

Substance | Gene Expression
6: peptide found in CLTA (gene looked up) (VLISLKQAPLV; listed as Homo sapiens) [compound 6] | +
61: peptide found in TUBA1B (gene looked up) (ALEKDYEEVGV; listed as Homo sapiens) [compound 61] | +++
52: peptide found in HYOU1 (gene looked up) (RMVEEIGVEL; listed as Homo sapiens) [compound 52] | +
30: peptide found in SLC16A3 (gene looked up) (VVDEGPTGV; listed as Homo sapiens) [compound 30] | ++
46: peptide found in EEF1A1 (gene looked up) (TFAPVNVTTEVKSV; listed as Homo sapiens) [compound 46] | ++
25: peptide found in MYH9 (gene looked up) (SLKEEVGEEAI; listed as Homo sapiens) [compound 25] | ++
62: peptide found in TUBA1B (gene looked up) (ALEKDYEEV; listed as Homo sapiens) [compound 62] | +++
48: peptide found in FLNA (gene looked up) (ALTQTGGPHV; listed as Homo sapiens) [compound 48] | +
16: peptide found in EEF1A1 (gene looked up) (APVNVTTEVKSV; listed as Homo sapiens) [compound 16] | +
58: peptide found in RGS4 (gene looked up) (GLAAFKAFL; listed as Homo sapiens) [compound 58] | +
51: peptide found in HSPD1 (gene looked up) (ALMLQGVDL; listed as Homo sapiens) [compound 51] | ++

Expression grades refer to the transcript from which the peptide derives; gene names, where given, were looked up from the sequence.
